Our source for the log2 fold change values is the supplement of paper PMC10849652.

Protein sequences, listed by entry. Tags and fused reporters are not part of them. Lines headed by an entry give the natural chain unless they say otherwise; changes in a name come on top.
UniProt O43390: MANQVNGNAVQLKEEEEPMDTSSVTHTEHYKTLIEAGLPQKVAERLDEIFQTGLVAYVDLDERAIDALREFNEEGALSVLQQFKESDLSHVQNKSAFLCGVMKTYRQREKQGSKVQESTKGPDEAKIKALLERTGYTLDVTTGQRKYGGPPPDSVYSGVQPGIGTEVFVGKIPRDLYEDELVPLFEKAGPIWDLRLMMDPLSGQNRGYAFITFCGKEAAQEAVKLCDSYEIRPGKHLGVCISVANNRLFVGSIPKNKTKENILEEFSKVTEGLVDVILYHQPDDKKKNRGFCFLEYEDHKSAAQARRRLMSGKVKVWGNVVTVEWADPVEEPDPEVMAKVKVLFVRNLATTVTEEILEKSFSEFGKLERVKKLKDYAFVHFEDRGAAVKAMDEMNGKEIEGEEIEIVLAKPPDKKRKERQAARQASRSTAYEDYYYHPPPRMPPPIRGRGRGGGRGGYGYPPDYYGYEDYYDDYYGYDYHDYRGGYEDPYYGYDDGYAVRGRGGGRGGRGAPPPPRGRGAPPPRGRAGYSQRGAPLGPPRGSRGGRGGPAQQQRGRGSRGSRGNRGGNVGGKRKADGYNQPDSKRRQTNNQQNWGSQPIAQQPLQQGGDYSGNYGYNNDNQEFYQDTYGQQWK
UniProt Q8IX15: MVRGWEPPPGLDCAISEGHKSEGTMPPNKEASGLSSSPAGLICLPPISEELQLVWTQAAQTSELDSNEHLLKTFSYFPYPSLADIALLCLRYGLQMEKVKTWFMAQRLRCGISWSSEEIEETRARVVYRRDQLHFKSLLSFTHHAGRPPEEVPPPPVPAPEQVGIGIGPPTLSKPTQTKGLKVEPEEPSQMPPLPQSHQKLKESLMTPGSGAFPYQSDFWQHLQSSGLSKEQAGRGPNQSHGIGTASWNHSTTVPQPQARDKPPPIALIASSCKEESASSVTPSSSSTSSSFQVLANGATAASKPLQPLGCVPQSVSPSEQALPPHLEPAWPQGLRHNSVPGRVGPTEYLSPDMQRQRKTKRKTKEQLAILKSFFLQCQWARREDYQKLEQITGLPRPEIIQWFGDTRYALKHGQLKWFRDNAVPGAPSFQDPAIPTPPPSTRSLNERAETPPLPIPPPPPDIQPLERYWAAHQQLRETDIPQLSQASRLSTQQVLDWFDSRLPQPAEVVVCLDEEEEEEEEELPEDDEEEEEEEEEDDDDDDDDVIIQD
UniProt P56937: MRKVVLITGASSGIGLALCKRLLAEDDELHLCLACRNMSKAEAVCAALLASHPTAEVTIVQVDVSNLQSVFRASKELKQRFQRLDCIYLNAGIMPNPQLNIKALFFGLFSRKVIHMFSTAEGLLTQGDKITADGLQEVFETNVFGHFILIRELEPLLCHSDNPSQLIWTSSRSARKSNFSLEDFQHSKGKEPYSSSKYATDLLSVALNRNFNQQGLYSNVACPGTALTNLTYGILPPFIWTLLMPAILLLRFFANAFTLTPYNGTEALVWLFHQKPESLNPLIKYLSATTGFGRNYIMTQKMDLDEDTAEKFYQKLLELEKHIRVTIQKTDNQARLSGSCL
UniProt P26583: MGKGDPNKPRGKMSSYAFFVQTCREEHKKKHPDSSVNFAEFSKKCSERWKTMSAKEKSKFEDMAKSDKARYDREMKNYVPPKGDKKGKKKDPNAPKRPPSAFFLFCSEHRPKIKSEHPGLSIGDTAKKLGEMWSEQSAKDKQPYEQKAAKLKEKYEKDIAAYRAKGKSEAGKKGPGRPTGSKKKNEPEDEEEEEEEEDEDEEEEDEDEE
UniProt Q99729: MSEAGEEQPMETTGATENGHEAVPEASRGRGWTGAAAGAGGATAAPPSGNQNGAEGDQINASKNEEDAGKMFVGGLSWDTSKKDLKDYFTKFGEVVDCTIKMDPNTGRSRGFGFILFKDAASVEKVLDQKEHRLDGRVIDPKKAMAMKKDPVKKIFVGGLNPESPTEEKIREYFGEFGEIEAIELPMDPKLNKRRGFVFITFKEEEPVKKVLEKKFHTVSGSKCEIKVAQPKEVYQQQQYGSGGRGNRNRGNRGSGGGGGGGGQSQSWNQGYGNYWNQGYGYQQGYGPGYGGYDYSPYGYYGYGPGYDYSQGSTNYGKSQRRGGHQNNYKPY
UniProt Q8NBQ5: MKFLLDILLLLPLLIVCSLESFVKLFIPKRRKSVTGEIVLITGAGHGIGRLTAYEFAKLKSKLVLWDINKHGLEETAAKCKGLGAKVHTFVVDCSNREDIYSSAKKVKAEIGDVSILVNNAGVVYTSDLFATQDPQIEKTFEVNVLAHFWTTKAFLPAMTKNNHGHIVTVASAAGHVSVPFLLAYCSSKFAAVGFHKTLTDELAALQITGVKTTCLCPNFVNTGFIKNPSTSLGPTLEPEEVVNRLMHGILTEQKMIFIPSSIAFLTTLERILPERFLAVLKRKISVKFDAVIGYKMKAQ
UniProt P14866: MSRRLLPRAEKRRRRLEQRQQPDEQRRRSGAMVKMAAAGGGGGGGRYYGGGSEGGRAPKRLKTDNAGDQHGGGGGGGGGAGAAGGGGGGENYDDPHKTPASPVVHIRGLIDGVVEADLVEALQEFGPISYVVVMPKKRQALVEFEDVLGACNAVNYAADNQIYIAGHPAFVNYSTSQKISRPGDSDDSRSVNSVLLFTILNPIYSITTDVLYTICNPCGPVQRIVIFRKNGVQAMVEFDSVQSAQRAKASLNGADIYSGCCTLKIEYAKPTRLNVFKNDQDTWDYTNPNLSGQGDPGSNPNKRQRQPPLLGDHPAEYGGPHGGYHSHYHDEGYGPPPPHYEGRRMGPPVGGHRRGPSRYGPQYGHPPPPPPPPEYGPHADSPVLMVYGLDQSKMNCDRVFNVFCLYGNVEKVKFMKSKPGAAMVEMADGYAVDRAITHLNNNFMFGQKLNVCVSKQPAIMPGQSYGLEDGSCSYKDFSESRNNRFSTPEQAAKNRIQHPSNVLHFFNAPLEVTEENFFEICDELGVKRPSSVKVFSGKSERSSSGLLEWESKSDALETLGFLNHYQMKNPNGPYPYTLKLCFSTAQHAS
UniProt Q8WVV9: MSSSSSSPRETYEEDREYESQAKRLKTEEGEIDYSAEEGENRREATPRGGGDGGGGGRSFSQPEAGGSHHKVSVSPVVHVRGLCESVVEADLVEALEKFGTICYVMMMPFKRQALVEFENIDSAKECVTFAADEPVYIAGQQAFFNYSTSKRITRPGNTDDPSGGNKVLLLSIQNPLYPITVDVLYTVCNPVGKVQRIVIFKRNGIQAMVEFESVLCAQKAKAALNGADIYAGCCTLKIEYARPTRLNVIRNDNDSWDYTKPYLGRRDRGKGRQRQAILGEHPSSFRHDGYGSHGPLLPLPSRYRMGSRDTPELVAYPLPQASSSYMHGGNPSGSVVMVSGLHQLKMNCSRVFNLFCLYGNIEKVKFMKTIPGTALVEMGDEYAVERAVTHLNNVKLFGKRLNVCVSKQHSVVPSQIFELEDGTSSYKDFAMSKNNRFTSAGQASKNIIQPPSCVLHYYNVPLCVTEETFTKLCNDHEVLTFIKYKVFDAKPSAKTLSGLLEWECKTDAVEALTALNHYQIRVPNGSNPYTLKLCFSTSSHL
UniProt Q9NP66: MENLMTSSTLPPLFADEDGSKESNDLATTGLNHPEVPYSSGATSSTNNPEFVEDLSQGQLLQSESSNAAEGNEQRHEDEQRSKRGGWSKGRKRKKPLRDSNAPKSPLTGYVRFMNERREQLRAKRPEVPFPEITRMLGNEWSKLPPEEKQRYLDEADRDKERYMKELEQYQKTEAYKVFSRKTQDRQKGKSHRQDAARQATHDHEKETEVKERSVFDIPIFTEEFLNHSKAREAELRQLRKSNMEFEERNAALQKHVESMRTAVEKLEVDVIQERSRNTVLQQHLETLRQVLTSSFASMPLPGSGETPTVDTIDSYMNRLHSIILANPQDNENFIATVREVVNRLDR
UniProt Q6NVY1: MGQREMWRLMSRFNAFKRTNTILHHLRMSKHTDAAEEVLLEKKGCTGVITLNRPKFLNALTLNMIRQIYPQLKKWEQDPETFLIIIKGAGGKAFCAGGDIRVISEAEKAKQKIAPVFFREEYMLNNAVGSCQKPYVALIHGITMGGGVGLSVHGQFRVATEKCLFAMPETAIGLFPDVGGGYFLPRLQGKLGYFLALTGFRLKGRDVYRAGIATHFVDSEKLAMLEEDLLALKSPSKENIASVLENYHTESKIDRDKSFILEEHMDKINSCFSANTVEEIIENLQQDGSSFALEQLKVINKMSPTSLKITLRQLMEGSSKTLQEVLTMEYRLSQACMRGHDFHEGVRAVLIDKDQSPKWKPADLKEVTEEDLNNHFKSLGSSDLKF
UniProt P82970: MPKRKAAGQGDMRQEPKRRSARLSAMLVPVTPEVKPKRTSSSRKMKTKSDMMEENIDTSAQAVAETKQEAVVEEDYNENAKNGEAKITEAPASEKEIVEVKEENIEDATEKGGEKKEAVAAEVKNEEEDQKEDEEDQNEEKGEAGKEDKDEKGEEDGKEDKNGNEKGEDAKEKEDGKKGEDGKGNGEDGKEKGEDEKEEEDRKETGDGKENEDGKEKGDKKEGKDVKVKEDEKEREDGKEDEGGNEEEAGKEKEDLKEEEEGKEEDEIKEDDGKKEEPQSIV
UniProt P05114: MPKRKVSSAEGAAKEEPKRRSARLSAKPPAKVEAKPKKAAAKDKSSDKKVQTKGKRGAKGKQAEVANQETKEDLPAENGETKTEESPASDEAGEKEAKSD
UniProt O75506: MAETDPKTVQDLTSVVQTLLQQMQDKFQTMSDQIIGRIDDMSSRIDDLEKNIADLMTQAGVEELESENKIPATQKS
UniProt Q58FF6, whole entry, looked up: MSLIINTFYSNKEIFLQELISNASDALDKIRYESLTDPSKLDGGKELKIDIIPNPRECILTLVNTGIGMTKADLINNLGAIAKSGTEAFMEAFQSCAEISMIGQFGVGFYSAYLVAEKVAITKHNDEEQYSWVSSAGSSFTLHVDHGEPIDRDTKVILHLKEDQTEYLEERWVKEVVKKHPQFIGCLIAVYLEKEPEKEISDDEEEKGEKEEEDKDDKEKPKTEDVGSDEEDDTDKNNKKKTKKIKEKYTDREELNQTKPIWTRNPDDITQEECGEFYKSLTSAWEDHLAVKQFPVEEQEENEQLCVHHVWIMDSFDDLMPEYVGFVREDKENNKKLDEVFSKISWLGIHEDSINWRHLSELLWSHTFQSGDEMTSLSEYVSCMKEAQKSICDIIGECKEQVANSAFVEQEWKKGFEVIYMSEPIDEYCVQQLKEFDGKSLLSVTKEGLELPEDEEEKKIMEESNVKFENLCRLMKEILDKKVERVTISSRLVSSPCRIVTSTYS
UniProt Q9NQE9: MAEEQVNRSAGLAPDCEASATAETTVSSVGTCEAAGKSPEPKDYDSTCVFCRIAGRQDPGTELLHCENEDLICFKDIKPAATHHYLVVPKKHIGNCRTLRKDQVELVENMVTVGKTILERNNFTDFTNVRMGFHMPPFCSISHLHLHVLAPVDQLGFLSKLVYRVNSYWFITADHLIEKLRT
UniProt P00492: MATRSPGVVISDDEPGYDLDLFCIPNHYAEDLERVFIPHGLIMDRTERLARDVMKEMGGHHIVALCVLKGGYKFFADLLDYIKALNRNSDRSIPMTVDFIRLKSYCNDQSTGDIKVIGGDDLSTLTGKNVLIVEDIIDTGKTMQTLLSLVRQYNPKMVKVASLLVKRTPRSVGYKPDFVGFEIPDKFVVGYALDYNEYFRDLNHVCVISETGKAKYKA
UniProt H0YH80: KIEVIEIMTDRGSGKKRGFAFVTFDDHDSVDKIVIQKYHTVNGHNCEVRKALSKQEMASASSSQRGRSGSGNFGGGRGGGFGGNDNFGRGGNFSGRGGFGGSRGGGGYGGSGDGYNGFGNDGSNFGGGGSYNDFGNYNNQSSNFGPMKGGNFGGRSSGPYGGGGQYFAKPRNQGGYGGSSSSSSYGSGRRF
UniProt P14625, whole entry, looked up: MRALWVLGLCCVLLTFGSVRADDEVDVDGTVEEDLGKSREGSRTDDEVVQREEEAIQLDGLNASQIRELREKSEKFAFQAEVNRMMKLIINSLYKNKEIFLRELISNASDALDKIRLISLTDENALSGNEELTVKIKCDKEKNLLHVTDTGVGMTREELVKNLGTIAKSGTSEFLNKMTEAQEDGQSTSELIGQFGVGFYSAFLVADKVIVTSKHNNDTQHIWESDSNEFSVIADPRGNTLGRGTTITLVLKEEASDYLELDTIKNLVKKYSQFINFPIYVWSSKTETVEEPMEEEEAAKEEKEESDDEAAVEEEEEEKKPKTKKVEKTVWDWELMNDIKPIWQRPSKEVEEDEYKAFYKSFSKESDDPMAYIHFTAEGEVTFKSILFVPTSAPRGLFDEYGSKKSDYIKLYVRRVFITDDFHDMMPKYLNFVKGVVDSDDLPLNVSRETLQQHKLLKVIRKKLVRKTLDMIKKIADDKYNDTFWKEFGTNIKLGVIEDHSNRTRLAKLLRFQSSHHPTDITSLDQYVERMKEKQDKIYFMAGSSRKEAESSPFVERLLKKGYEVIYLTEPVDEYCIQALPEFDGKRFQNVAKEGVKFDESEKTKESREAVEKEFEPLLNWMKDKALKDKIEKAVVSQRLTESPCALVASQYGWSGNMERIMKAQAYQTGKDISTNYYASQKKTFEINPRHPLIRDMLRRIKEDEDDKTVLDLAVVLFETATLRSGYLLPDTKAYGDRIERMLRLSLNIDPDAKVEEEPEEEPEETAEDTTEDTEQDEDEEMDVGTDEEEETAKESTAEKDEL

This is one part of the list.

Compound in the assay: O=C(O)c1ccc2c(c1)nc(Nc1cccc(Cl)c1)c1ccncc12 [silmitasertib]
Kind of assay: log2 fold change, soluble protein after heating vs DMSO (PISA); higher = thermal stabilisation; K562 lysate, 10 uM; active = over 0.2 and 3.5 SD of the protein, either way, in both replicates (recomputed). Summed up: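 Log-two fold change in thermal stability relative to solvent controls is reported from duplicates. For each sample, crude K562 extract from dounce-homogenised pellets in PBS pH 7.4 with 1 mM MgCl2, at 1 mg/mL protein, was treated with 10 μM compound for 30 min. Aliquots heated for 3 min across 48°C-58°C were pooled, brought to 0.5% NP-40 at 4°C and cleared at 21,000xg for 90 min. The supernatant was quantified by TMTpro 16plex LC-MS/MS with channel sums equalised.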
Take HNRNPR isoform 2 (UniProt O43390): the log2 fold change is inactive: 0.044.

As to HERC4 (UniProt Q5GLZ8), the log2 fold change was inactive: -0.012. On to HOMEZ isoform 3 (UniProt Q8IX15), for which the log2 fold change is inactive: -0.033. Turning to HSDL1 (UniProt Q3SXM5), the log2 fold change is inactive: -0.008. In the case of HNRNPA3 (UniProt P51991), the log2 fold change was inactive: 0.02.

Take HEXD isoform 2 (UniProt Q8WVB3): the log2 fold change was inactive: -0.036. The result for HSD17B7 (UniProt P56937) reads inactive: 0.009; that for HSP90AB1 (UniProt P08238), inactive: -0.016; that for HELQ (UniProt Q8TDG4), inactive: 0.076. Regarding HMGB2 (UniProt P26583), the log2 fold change was inactive: -0.052. Regarding HNRNPAB isoform 3 (UniProt Q99729), the log2 fold change was inactive: -0.01.

As to HNRNPK isoform 3 (UniProt P61978), the log2 fold change is inactive: -0.011.

HSD17B11 (UniProt Q8NBQ5): the log2 fold change was inactive: -0.008. With HMGXB4 (UniProt Q9UGU5), the log2 fold change was inactive: -0.208.

Regarding HNRNPL (UniProt P14866), the log2 fold change is inactive: 0.072.

For HNRNPLL (UniProt Q8WVV9), the log2 fold change is inactive: 0.035. As for HMG20A (UniProt Q9NP66), the log2 fold change was inactive: -0.04.

In the case of HNRNPA0 (UniProt Q13151), the log2 fold change was inactive: -0.088. Consider HMGB3 (UniProt O15347), for which the log2 fold change is inactive: -0.007. Consider HIBCH (UniProt Q6NVY1), for which the log2 fold change is inactive: -0.017. As for HMGN5 (UniProt P82970), the log2 fold change was inactive: 0.002.

HMGN1 (UniProt P05114): the log2 fold change was inactive: -0.019. For HSBP1 (UniProt O75506), the log2 fold change was inactive: -0.243. The result for HK2 (UniProt P52789) reads inactive: 0.038. For the target HSP90AB4P (UniProt Q58FF6), the log2 fold change is inactive: -0.026. The figure for HNRNPH3 (UniProt P31942) is inactive: 0.021. Consider HINT3 (UniProt Q9NQE9), for which the log2 fold change was inactive: -0.033. For HSPA2 (UniProt P54652), the log2 fold change is inactive: 0.03.

HPRT1 (UniProt P00492): the log2 fold change is inactive: 0.001. As for HSF1 (UniProt Q00613), the log2 fold change is inactive: 0.012. With HIRIP3 (UniProt Q9BW71), the log2 fold change was inactive: -0.05.

Regarding HNRNPA1 (UniProt H0YH80), the log2 fold change is inactive: 0.01. On to HSP90B1 (UniProt P14625), for which the log2 fold change is inactive: 0.
